{"sequences": {"note": "Chains of the proteins cited; added tags and fusions are not shown. Lines headed by an entry give the natural chain unless they say otherwise; changes in a name come on top. Residues count along the entry.", "UniProt Q9NZJ4": "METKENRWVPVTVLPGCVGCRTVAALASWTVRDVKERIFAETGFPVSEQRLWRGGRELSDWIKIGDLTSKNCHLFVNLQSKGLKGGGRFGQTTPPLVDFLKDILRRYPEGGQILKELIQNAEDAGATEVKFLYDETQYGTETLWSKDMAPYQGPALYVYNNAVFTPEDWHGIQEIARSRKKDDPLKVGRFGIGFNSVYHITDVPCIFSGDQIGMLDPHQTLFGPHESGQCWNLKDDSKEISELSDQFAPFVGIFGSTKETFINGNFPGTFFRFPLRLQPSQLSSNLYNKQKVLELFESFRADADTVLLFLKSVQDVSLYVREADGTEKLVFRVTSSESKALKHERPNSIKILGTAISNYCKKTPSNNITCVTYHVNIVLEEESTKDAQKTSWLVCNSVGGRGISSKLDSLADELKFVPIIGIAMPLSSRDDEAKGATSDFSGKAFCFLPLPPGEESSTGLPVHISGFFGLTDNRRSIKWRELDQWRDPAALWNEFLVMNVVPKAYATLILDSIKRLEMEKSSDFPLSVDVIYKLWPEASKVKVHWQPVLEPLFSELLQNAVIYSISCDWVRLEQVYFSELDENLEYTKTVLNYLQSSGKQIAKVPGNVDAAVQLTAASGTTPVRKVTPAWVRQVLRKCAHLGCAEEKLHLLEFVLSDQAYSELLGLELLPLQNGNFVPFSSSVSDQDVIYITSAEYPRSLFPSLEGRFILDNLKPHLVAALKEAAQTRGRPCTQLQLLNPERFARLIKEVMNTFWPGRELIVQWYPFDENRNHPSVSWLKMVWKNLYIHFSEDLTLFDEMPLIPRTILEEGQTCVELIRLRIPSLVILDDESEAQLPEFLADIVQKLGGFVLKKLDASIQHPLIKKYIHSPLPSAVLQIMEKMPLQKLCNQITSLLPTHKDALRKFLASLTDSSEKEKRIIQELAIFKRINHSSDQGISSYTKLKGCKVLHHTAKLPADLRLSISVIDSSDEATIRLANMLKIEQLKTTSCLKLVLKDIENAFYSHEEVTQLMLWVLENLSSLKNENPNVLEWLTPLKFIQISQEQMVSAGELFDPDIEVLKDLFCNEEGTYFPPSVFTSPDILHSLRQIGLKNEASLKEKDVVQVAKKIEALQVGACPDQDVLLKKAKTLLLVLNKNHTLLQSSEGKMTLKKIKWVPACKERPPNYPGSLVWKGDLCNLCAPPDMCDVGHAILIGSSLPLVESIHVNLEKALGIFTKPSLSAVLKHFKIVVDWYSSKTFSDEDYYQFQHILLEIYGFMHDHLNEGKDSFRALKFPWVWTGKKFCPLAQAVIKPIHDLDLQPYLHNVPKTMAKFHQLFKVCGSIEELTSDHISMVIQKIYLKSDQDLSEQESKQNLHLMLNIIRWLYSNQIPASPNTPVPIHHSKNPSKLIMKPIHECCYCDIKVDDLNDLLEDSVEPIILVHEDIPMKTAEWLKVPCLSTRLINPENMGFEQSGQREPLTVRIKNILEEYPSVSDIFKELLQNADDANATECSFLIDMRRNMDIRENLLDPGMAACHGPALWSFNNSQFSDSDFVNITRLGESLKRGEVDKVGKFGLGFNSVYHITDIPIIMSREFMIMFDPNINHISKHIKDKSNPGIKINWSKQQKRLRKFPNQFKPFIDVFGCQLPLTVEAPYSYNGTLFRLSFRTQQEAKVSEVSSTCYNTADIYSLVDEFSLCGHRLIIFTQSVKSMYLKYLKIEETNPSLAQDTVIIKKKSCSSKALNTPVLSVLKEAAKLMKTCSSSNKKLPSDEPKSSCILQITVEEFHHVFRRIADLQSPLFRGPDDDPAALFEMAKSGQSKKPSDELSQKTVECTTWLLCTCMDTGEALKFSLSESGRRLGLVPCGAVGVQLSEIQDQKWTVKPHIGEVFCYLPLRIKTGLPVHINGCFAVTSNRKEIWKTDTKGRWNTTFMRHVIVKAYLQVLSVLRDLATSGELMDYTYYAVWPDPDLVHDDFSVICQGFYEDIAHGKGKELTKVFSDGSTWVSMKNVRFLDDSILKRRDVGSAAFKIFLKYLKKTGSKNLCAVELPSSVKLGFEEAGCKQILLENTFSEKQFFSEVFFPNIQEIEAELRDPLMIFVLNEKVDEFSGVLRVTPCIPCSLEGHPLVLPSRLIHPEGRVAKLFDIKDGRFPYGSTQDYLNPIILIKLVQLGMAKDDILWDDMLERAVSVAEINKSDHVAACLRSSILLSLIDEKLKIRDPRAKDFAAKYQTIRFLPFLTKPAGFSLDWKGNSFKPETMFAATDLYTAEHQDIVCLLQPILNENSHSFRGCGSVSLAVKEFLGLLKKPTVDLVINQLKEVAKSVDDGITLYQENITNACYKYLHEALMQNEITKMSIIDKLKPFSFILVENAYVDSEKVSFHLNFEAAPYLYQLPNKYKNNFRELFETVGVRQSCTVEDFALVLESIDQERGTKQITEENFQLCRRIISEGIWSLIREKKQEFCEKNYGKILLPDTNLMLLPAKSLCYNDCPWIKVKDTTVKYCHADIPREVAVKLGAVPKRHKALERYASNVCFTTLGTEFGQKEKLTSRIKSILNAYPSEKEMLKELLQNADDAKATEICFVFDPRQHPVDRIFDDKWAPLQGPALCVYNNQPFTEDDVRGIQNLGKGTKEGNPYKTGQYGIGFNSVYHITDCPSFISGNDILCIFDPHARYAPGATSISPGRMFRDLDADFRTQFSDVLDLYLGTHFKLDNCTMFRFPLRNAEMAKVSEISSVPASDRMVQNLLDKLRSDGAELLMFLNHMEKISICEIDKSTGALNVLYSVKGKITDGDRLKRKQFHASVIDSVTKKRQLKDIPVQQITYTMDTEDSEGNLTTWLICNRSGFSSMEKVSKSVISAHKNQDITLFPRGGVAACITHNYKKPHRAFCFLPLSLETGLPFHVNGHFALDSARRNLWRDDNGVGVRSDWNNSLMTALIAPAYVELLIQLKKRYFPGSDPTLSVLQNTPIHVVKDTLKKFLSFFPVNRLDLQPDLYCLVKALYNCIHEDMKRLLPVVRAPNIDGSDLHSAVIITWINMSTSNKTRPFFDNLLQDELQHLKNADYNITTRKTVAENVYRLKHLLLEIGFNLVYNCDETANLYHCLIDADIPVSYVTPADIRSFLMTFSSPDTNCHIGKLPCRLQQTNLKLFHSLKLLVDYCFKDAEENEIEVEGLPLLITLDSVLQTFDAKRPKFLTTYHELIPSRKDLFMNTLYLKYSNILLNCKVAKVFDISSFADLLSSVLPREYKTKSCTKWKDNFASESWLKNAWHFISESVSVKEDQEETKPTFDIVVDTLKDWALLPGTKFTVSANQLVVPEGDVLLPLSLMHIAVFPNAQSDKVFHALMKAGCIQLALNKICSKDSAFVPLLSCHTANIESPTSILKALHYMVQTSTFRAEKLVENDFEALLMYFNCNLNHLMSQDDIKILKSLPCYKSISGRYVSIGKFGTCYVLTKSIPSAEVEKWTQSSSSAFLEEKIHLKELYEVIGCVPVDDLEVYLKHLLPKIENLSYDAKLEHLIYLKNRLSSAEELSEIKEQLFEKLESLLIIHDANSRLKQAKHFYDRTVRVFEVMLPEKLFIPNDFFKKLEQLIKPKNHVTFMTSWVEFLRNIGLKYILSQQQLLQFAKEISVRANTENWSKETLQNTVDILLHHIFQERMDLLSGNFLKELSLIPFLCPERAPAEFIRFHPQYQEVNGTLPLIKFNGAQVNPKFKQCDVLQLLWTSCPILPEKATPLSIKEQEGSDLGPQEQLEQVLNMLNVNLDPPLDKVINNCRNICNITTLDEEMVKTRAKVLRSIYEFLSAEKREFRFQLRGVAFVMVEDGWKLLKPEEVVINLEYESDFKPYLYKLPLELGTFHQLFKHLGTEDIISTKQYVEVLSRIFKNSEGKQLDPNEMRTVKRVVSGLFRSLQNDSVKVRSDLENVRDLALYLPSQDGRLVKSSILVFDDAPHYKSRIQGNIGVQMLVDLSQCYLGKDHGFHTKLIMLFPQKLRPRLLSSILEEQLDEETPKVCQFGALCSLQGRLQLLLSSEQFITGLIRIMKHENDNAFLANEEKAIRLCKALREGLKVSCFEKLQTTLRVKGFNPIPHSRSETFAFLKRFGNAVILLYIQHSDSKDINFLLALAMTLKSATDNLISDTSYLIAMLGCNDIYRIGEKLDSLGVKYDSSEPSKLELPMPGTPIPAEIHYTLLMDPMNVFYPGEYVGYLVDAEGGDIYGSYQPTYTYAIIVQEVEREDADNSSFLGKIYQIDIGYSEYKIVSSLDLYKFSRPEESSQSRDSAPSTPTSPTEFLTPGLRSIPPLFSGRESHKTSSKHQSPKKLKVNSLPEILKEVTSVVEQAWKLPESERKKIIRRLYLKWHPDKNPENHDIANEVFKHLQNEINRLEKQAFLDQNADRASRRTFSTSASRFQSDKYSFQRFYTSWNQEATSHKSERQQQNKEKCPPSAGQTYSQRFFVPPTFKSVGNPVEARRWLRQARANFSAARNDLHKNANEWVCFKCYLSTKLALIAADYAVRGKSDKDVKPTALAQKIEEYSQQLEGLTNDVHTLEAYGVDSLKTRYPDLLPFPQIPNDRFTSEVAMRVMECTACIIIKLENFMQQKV", "UniProt Q13464": "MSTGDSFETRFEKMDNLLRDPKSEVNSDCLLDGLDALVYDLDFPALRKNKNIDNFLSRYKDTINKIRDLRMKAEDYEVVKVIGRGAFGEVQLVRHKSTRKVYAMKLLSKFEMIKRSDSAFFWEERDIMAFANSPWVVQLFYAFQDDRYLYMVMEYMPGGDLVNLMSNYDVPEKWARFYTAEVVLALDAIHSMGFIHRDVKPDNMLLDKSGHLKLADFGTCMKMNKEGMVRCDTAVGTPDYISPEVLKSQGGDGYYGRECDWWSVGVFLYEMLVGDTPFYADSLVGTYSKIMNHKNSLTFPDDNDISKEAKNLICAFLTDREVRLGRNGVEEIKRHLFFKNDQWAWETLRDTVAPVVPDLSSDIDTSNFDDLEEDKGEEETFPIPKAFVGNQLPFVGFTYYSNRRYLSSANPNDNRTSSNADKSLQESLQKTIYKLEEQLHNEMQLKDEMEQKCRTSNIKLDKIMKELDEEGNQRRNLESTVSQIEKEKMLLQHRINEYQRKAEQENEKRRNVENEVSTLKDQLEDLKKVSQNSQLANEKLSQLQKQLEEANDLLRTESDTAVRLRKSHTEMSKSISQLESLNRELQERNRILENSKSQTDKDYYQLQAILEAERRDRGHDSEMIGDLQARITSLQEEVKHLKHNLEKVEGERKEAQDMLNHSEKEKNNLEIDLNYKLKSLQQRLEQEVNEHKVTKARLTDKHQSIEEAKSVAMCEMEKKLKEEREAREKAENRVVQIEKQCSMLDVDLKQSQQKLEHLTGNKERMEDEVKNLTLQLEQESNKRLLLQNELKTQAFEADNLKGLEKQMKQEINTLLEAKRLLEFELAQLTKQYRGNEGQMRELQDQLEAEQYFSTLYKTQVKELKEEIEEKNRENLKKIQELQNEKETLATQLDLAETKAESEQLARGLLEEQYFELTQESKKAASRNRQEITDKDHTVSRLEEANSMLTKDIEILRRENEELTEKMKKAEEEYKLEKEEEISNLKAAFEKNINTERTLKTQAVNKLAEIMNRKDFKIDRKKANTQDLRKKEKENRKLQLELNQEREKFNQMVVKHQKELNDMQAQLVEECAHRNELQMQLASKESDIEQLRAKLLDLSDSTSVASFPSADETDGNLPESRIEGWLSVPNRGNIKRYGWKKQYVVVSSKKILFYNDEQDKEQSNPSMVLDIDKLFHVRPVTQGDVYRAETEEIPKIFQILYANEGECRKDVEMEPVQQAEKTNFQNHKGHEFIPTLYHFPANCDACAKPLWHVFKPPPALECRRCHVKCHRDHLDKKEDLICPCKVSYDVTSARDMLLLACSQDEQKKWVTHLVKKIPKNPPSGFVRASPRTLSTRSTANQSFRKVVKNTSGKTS", "UniProt O00442": "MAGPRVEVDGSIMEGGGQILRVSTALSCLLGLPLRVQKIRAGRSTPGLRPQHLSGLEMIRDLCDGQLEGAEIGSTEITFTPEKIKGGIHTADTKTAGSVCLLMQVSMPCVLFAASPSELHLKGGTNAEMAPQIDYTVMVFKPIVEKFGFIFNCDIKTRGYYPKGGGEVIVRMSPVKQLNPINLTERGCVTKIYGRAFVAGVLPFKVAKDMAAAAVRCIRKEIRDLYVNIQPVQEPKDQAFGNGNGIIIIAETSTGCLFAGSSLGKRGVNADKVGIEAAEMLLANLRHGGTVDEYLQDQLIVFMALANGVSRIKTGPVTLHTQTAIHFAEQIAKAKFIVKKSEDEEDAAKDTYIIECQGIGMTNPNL", "UniProt P10155, 288-307": "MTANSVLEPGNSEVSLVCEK"}, "source": "the supplement of paper PMC11732987", "about": "“Enantioselective OTUD7B fragment discovery through chemoproteomics screening and high-throughput optimisation” (Communications Chemistry, 2025)", "note": "Some of the results follow. The data scatter; read single values as rough.", "data": [{"compound": "ClCC(=O)N[C@H]1CCCc2ccccc12", "assay": "log2 mean competition ratio of IA-DTB cysteine labelling (DMSO/compound) (log2 ratio); higher = stronger cysteine engagement by compound", "settings": "50 µM; treatment time: 4 h; cell line lysate: HEK293T", "description": "(§1)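 IA-DTB competitive cysteine chemoproteomics in HEK293T RIPA lysate. Lysates were treated with compound 29 or 30 at 50 or 200 µM for 4 h, then IA-DTB (500 µM, 1 h), trypsin-digested, NeutrAvidin-enriched and analysed by diaPASEF. Competition ratio = intensity DMSO / intensity compound (n=4 treated, n=64 DMSO); binding: mean log2 CR ≥ 1 and p ≤ 0.05 plus QC filters. Target is the cysteine site.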", "values": [{"target": "SACS C2976 (UniProt Q9NZJ4)", "log2 mean competition ratio": -0.408}, {"target": "RNASEL C639 (UniProt Q05823)", "log2 mean competition ratio": 0.175}, {"target": "RPRD1B C100 (UniProt Q9NQG5)", "log2 mean competition ratio": 0.0221}, {"target": "RPL18A C109 (UniProt Q02543)", "log2 mean competition ratio": -0.212}, {"target": "RNF126 C32 (UniProt Q9BV68)", "log2 mean competition ratio": 0.137}, {"target": "ROCK1 C231 (UniProt Q13464)", "log2 mean competition ratio": 0.0286}, {"target": "RTCA C153 (UniProt O00442)", "log2 mean competition ratio": 0.256}, {"target": "RPS3 C119", "log2 mean competition ratio": 0.827}, {"target": "RNF8 C181 (UniProt O76064)", "log2 mean competition ratio": -0.14}, {"target": "RO60 C305 (UniProt P10155)", "log2 mean competition ratio": 0.0194}, {"target": "RNF213 C856", "log2 mean competition ratio": -0.0443}, {"target": "RUFY1 C8 (UniProt Q96T51)", "log2 mean competition ratio": 0.156}, {"target": "RTEL1 C20 (UniProt Q9NZ71)", "log2 mean competition ratio": 0.861}, {"target": "RPL27A C144 (UniProt P46776)", "log2 mean competition ratio": 0.653}, {"target": "SACS C732 (UniProt Q9NZJ4)", "log2 mean competition ratio": 0.352}, {"target": "RPL7A C199 (UniProt P62424)", "log2 mean competition ratio": -0.412}, {"target": "ROCK1 C1300 (UniProt Q13464)", "log2 mean competition ratio": -0.558}, {"target": "RSAD1 C175 (UniProt Q9HA92)", "log2 mean competition ratio": 0.193}, {"target": "SACS C395 (UniProt Q9NZJ4)", "log2 mean competition ratio": 0.477}, {"target": "RPAP2 C277 (UniProt Q8IXW5)", "log2 mean competition ratio": -0.318}]}, {"compound": "ClCC(=O)N[C@H]1CCCc2ccccc12", "assay": "log2 mean competition ratio of IA-DTB cysteine labelling (DMSO/compound) (log2 ratio); higher = stronger cysteine engagement by compound", "settings": "200 µM; treatment time: 4 h; cell line lysate: HEK293T", "description": "as §1", "values": [{"target": "SACS C2976 (UniProt Q9NZJ4)", "log2 mean competition ratio": -0.271}, {"target": "RNASEL C639 (UniProt Q05823)", "log2 mean competition ratio": 0.112}, {"target": "RPRD1B C100 (UniProt Q9NQG5)", "log2 mean competition ratio": 0.413}, {"target": "RPL18A C109 (UniProt Q02543)", "log2 mean competition ratio": -0.163}, {"target": "RNF126 C32 (UniProt Q9BV68)", "log2 mean competition ratio": -0.00288}, {"target": "ROCK1 C231 (UniProt Q13464)", "log2 mean competition ratio": 0.036}, {"target": "RTCA C153 (UniProt O00442)", "log2 mean competition ratio": -0.125}, {"target": "RPS3 C119", "log2 mean competition ratio": -0.319}, {"target": "RNF8 C181 (UniProt O76064)", "log2 mean competition ratio": -0.0953}, {"target": "RO60 C305 (UniProt P10155)", "log2 mean competition ratio": -0.00966}, {"target": "RNF213 C856", "log2 mean competition ratio": -0.24}, {"target": "RUFY1 C8 (UniProt Q96T51)", "log2 mean competition ratio": -0.0301}, {"target": "RTEL1 C20 (UniProt Q9NZ71)", "log2 mean competition ratio": 0.177}, {"target": "RPL27A C144 (UniProt P46776)", "log2 mean competition ratio": 0.121}, {"target": "SACS C732 (UniProt Q9NZJ4)", "log2 mean competition ratio": 0.109}, {"target": "RPL7A C199 (UniProt P62424)", "log2 mean competition ratio": -0.259}, {"target": "ROCK1 C1300 (UniProt Q13464)", "log2 mean competition ratio": 0.149}, {"target": "RSAD1 C175 (UniProt Q9HA92)", "log2 mean competition ratio": 0.519}, {"target": "SACS C395 (UniProt Q9NZJ4)", "log2 mean competition ratio": 0.145}, {"target": "RPAP2 C277 (UniProt Q8IXW5)", "log2 mean competition ratio": 0.329}]}]}
